No constants are given. Whether binding was seen depends on the method and setting. Binding calls can cover weak binding; strength is not graded here.

From paper doi:10.1101/2022.01.12.476023 come the findings set out here.

This experiment deals with PLP^2539-2895, expressed in S2 cells for the mitochondrial recruitment assay (Drosophila). Nature of the experiment: mitochondrial recruitment.

B1: KHC^601-849, expressed in S2 cells for the mitochondrial recruitment assay (domain or fragment, UniProt P17210 601-849)
chain: GTDASKVEEDFTMARLFISKMKTEAKNIAQRCSNMETQQADSNKKISEYEKDLGEYRLLISQHEARMKSLQESMREAENKKRTLEEQIDSLREECAKLKAAEHVSAVNAEEKQRAEELRSMFDSQMDELREAHTRQVSELRDEIAAKQHEMDEMKDVHQKLLLAHQQMTADYEKVRQEDAEKSSELQNIILTNERREQARKDLKGLEDTVAKELQTLHNLRKLFVQDLQQRIRKNVVNEESEEDGGSLA
B1: the binding entry is listed as “binds”.
